Measured data: PubChem BioAssay AID1259289 (Sanger Institute, 2017)
Test: 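Find kinases whose loss adds to targeted drugs in killing bowel cancer cells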 (primary screen). Cell system: human LS513 colorectal cancer cells. Reagent: siRNA pool against human genes. Treatment: anchor drug BYL719 at 1 µM, cetuximab at 5 µg/ml or trametinib at 10 nM, or DMSO vehicle alone; exposure time not given. Measurement: 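Survival versus non-targeting pool for each arm averaged over replicates, robust z-score in the arm with DMSO only, and synergy scores for BYL719, cetuximab or trametinib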. Direction: robust z-score, siRNA alone (DMSO): higher = more viable cells; strongly negative means essential; viability with DMSO vs control: higher = more viable cells; synergy score with BYL719: higher = stronger combined killing with BYL719; synergy score with cetuximab: higher = stronger combined killing with cetuximab; synergy score with trametinib: higher = stronger combined killing with trametinib. Call rule: 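a gene counts as active if its DMSO-only robust z-score falls under -3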. Calls: active = essential (knock-down alone); inactive = not essential.
This is one part, drawn at random, of 794 reagents tested. 16 of them (2%) count as active. 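Active marks cell loss from silencing alone; drug synergy shows only in the synergy scores, not the calls.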 Unmarked entries are inactive. No viability above 1 is reported: the scale is capped. Not given: the amount of reagent, the time to read-out.

gene	robust z-score, siRNA alone (DMSO)	viability with DMSO vs control (fraction of control)	synergy score with BYL719	synergy score with cetuximab	synergy score with trametinib
AGK (acylglycerol kinase)	0.561	1	-0.134	-0.0968	-0.0666
TSSK1B (testis specific serine kinase 1B)	0.32	0.966	-0.000317	0.179	0.038
MAP3K7 (mitogen-activated protein kinase kinase kinase 7)	0.561	1	-0.0484	0.0206	0.0246
CDK5 (cyclin dependent kinase 5)	0.561	1	-0.134	-0.0968	-0.0751
CSK (C-terminal Src kinase)	0.561	1	0.0424	-0.0968	-0.112
PIK3R2 (phosphoinositide-3-kinase regulatory subunit 2)	0.561	1	-0.0274	-0.0869	-0.0707
ITPK1 (inositol-tetrakisphosphate 1-kinase)	0.561	1	-0.0203	-0.0881	-0.105
MAPK7 (mitogen-activated protein kinase 7)	0.561	1	0.141	0.134	0.0347
TYRO3 (TYRO3 protein tyrosine kinase)	-0.453	0.856	-0.00507	0.246	0.00998
TRIB2 (tribbles pseudokinase 2)	-1.92	0.648	-0.0974	0.0634	0.0479
RPS6KA3 (ribosomal protein S6 kinase A3)	0.561	1	-0.134	-0.0968	-0.0777
PGK2 (phosphoglycerate kinase 2)	0.561	1	-0.104	-0.0968	-0.0197
PI4KB (phosphatidylinositol 4-kinase beta)	0.561	1	0.00529	0.0157	-0.0151
MAP2K6 (mitogen-activated protein kinase kinase 6)	0.561	1	0.101	-0.0197	-0.0593
TP53BP1 (tumor protein p53 binding protein 1)	0.561	1	-0.134	-0.0968	0.0158
PIP5K1C (phosphatidylinositol-4-phosphate 5-kinase type 1 gamma)	0.561	1	0.104	0.0481	-0.073
DGKK (diacylglycerol kinase kappa)	0.561	1	-0.134	-0.0692	0.0103
EXOSC10 (exosome component 10)	0.115	0.937	-0.0257	0.112	-0.0326
CIT (citron rho-interacting serine/threonine kinase)	-1.86	0.656	0.0363	0.0943	0.0258
CDK16 (cyclin dependent kinase 16)	0.561	1	0.145	0.132	0.061

Entries listed so far whose gene name begins with M or m (3):
gene	robust z-score, siRNA alone (DMSO)	viability with DMSO vs control (fraction of control)	synergy score with BYL719	synergy score with cetuximab	synergy score with trametinib
MAP3K7 (mitogen-activated protein kinase kinase kinase 7)	0.561	1	-0.0484	0.0206	0.0246
MAPK7 (mitogen-activated protein kinase 7)	0.561	1	0.141	0.134	0.0347
MAP2K6 (mitogen-activated protein kinase kinase 6)	0.561	1	0.101	-0.0197	-0.0593
